Out of some 300,000 compounds screened, about 3,700 (1.2%) were called active. Inconclusive results, whose numbers are uncertain, are shown with a selection of clear calls. Calls come from the whole dose curve; tested in HEK293 cells. Potencies beside an inconclusive call are fits to weak or partial responses and may not hold up.
Assay: qHTS for Inhibitors of binding or entry into cells for Lassa Virus; note: nearly all actives have a fitted effect of over 50% in size
Settings: Lassa virus pseudotype entry inhibition, cell reporter; series mostly up to 37.9 µM
Potency is the fitted concentration of half-maximal effect.

Structure (SMILES)	Potency
CCc1ccccc1N/N=C(/C)c1c(O)cc(C)oc1=O	inactive
O=S(=O)(Nc1ccc(-c2ccc(N3CCCC3)nn2)cc1)c1ccc(Cl)cc1	inactive
Cc1cccc(Cc2nnc(CCC(=O)N(CC3CC3)CC3CCCO3)o2)c1 (stereo not given)	inactive
O=C(Nc1cccc(-c2nc3ccccc3o2)c1)c1ccc(-c2ccc(Br)cc2)o1	inactive
CCn1ncc(/C=N\NC(=O)COc2cc(C)cc(C)c2)c1C	inconclusive: 29.1 µM [inhibitor, partial curve, poor fit]
Cc1csc(NC(=O)CSCc2c(C)noc2C)n1	inconclusive: 5.62 µM [activator, partial curve, poor fit]
COc1ccc(S(=O)(=O)N(CCc2ccccc2)CC(=O)Nc2ccc(C)c(C)c2)cc1OC	inconclusive: 22.4 µM [inhibitor, single point]
CNc1c(NS(=O)(=O)c2ccc(Br)cc2)c(=O)oc2ccccc12	inconclusive: 3.98 µM [inhibitor, partial curve]
c1ccc(-c2cnnc(N3CCOCC3)n2)cc1	inactive
CCCCC1NC(=S)N(C2CCCCC2)C1=O (stereo not given)	inactive
CC12CN(NC(=O)c3ccccc3F)C3(C#N)CC1CCC23C (stereo not given)	inactive
COc1ccc(S(=O)(=O)Nc2ccc(NC(C)=O)cc2)cc1	inconclusive: 11.6 µM [inhibitor, partial curve]
COc1ccc(Cl)cc1N(CC(=O)N/N=C/c1ccc(OC(C)C)cc1)S(=O)(=O)c1ccc(C)c([N+](=O)[O-])c1	inconclusive: 1.46 µM [inhibitor, full curve]
CCN(CC)S(=O)(=O)c1ccc(C)c(NC(=S)N2CCN(c3ccccn3)CC2)c1	active: 10 µM
Cc1nc(NC(=O)CSc2nc3cccnc3n2Cc2ccccc2)sc1C	inconclusive: 20 µM [inhibitor, partial curve, poor fit]
Cc1cc(N/N=C/c2ccccc2)nc(NCc2ccccc2)n1	inconclusive: 7.94 µM [inhibitor, partial curve, poor fit]
CS/C(=N\S(=O)(=O)c1cccs1)Nc1ccc(Br)cc1F	inconclusive: 14.1 µM [inhibitor, partial curve, poor fit]
CCC(=O)c1ccc(OCC(O)CN(C)C2CCCCC2)cc1 (stereo not given)	inactive
O=C1C(c2ccccc2)C(c2ccccc2)NC(c2ccccc2)C1c1ccccc1 (stereo not given)	inconclusive: 0.0046 µM [inhibitor, full curve, poor fit]
Cc1cccc(NC(=O)c2oc(=O)c3ccccc3c2-c2ccccc2)c1C	inconclusive: 6.51 µM [inhibitor, single point]

Two entries from above, with bars between the fields.
Structure (SMILES) | Potency
Cc1csc(NC(=O)CSCc2c(C)noc2C)n1 | inconclusive: 5.62 µM [activator, partial curve, poor fit]
O=C1C(c2ccccc2)C(c2ccccc2)NC(c2ccccc2)C1c1ccccc1 (stereo not given) | inconclusive: 0.0046 µM [inhibitor, full curve, poor fit]
